Record: PubChem BioAssay AID686937 (Drosophila RNAi Screening Center, 2013)
In all, the deposit lists about 23,000 reagents; this is a random part of those that have a named target and a result. 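Reduced-secretion tags in replicate 1 do not always agree with the z-scores; no criterion for assigning the tags was given.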 A plus sign joins genes that one reagent is predicted to hit. The record does not give: the amount of reagent.

Test: 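Genes in the fly needed for secretion of protein constitutively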 (primary screen)
Cells: Drosophila S2 cells expressing secreted horseradish peroxidase
Knock-down reagent: long dsRNA against Drosophila genes
Timing: about 5.5 days (5 days dsRNA, then 12 h reporter induction)
Challenge: reporter expression induced after 5 days of dsRNA, read 12 h later; inducer not stated
Detection: 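Chemiluminescent measurement of peroxidase in the medium 12 h after reporter induction, following 5 days of dsRNA, given as a z-score per plate; higher means more secretion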
Reading the numbers: z-score: higher = more reporter secreted into medium

The opening 6 records, to show the layout:
predicted target	amplicon	z-score, replicate 1	z-score, replicate 2	phenotype, replicate 1
Sur (GeneID 34350)	DRSC03447	0.24	0.23	
CG32588 (GeneID 318101)	DRSC22285	-0.68	-0.21	
scu (GeneID 32789)	DRSC20369	0.09	0.33	
kkv (GeneID 45884)	DRSC12315	0.22	0.31	
Dph3 (GeneID 41352)	DRSC14923	0.45	0.12	
Cec-Psi1 (GeneID 3772648)	DRSC21956	0.47	0.38	

The list itself, from the first entry:
predicted target	amplicon	z-score, replicate 1	z-score, replicate 2	phenotype, replicate 1
Sur (GeneID 34350)	DRSC03447	0.24	0.23	
CG32588 (GeneID 318101)	DRSC22285	-0.68	-0.21	
scu (GeneID 32789)	DRSC20369	0.09	0.33	
kkv (GeneID 45884)	DRSC12315	0.22	0.31	
Dph3 (GeneID 41352)	DRSC14923	0.45	0.12	
Cec-Psi1 (GeneID 3772648)	DRSC21956	0.47	0.38	
CG30324 (GeneID 246540)	DRSC22655	0.31	0.04	
Gbp1 (GeneID 36936)	DRSC06592	0.53	0.42	
CG6769 (GeneID 32770)	DRSC20006	0.25	0.39	
pasi2 (GeneID 41113)	DRSC16380	0.45	0.54	
He + NimB5	DRSC22876	0.24	0.26	
TyrRII (GeneID 42135)	DRSC15150	0.37	0.16	
tty (GeneID 33109)	DRSC20588	0.31	0.53	
tfc (GeneID 38141)	DRSC07953	0.7	0.41	
tfc (GeneID 38141)	DRSC07954	-0.15	0.19	
tfc (GeneID 38141)	DRSC08626	-0.57	-0.11	
tfc (GeneID 38141)	DRSC21704	1.82	1.01	
tos (GeneID 35119)	DRSC03624	0.33	0.28	
CG1309 (GeneID 38519)	DRSC08302	0.33	0.44	
stnB + stnA	DRSC20969	-1.62	-0.21	
stnB + stnA	DRSC21112	0.72	0.32	
stnB + stnA	DRSC21113	0.13	0.15	
CG14915 (GeneID 34536)	DRSC02399	-0.92	-0.71	
Nmdar2 (GeneID 31107)	DRSC18183	0.46	0.35	
Nmdar2 (GeneID 31107)	DRSC18511	0.24	0.37	
Nmdar2 (GeneID 31107)	DRSC18569	0.15	0.31	
CG6426 (GeneID 36891)	DRSC06985	0.37	0.69	
CG14220 (GeneID 32954)	DRSC19577	-1.97	-0.43	
CG8001 (GeneID 38224)	DRSC08611	0.08	0.03	
Obsc (GeneID 3346201)	DRSC04301	0.79	0.69	
Obsc (GeneID 3346201)	DRSC04302	0.41	0.26	
Obsc (GeneID 3346201)	DRSC04303	0.11	0.42	
Obsc (GeneID 3346201)	DRSC04430	0.1	-0.18	
Obsc (GeneID 3346201)	DRSC22422	0.17	0.07	
Octbeta3R (GeneID 3885573)	DRSC15351	0.12	0.23	
Octbeta3R (GeneID 3885573)	DRSC16191	0.38	0.69	
Octbeta3R (GeneID 3885573)	DRSC21853	0.19	-0.47	
Octbeta3R (GeneID 3885573)	DRSC21902	4.34	1.64	
Octbeta3R (GeneID 3885573)	DRSC22350	0.63	0.3	
CG12325 (GeneID 36144)	DRSC06130	0.09	0.1	
WASp (GeneID 43402)	DRSC15032	0.48	0.54	
CG42717 (GeneID 10178897)	DRSC09411	0.17	0.11	
Mfe2 (GeneID 32582)	DRSC19869	0.44	0.53	
CG3216 (GeneID 37376)	DRSC04347	0.39	0.34	
CG14634 (GeneID 50366)	DRSC17944	0.21	0.31	
CR33315 (GeneID 3771801)	DRSC22947	-0.52	-0.42	
CG5355 (GeneID 34421)	DRSC02844	-0.37	0.19	
uif (GeneID 33983)	DRSC00963	0.43	0.2	
uif (GeneID 33983)	DRSC03427	0.02	0.26	
NaPi-III (GeneID 39255)	DRSC10893	0.51	0.36	
NaPi-III (GeneID 39255)	DRSC10894	-0.48	-0.37	
NaPi-III (GeneID 39255)	DRSC22953	-0.61	-0.18	
can (GeneID 45432)	DRSC10664	0.72	0.65	
CG13786 (GeneID 34006)	DRSC02289	-0.1	-0.02	
CG42455 + vnc	DRSC09867	-1.97	-1.44	reduced secretion
asRNA:CR31084 (GeneID 10178907)	DRSC21649	-0.68	0.6	
